{"source": "patent US7691420B2", "about": "“Compositions for the treatment and prevention of diabetes mellitus” (priority 2003, dated 2010)", "key": {"C57BLKS/J db/db mice [1]": {"tested_on": "C57BLKS/J db/db mice", "test": "Body weight, adipose tissue weight and food intake in the 4-week db/db mouse study", "type": "in vivo", "conditions": "4 weeks, compared to control mice", "experimental": "(§1) This model of late type 2 diabetes with severe hyperglycemia and obesity is widely used to determine the efficacy of anti-diabetic and anti-obesity compounds.\n(§2) Male db/db mice were obtained from Jackson Laboratory (Bar Harbor, Me., USA). Adult mice aged 8 weeks were used in the experiment. Mice were housed individually in plastic cages with bedding and allowed free access to standard rodent food and tap water. The animal rooms were controlled for temperature (24° C.), humidity (55%), and light (12-h light-dark cycle). The animals were randomized into four groups. […] Body weight and food intake were determined over the course of the study. Total adipose tissue weight was determined by NMR. After four weeks of treatment an oral glucose tolerance test was carried out after an overnight fasting period. The blood glucose levels were measured before (fasted state glucose levels) application of an oral glucose load (1 g/kg body weight) and after 15, 30, 45, 60, 90, 120, 150 and 180 minutes. Area under the curve (AUC) was calculated from the resulting blood glucose curves and served as an indicator of glucose tolerance. At the end of the study, fed state levels of glucose, triglycerides and free fatty acids were determined in plasma. All data are expressed as means for animals in each group."}, "C57BLKS/J db/db mice [2]": {"tested_on": "C57BLKS/J db/db mice", "test": "Fed state plasma glucose, triglycerides and free fatty acids in db/db mice at end of study", "type": "in vivo", "conditions": "4 weeks", "experimental": "as §1, §2"}}, "note": "For at least one compound, name, drawing or mass did not settle the structure.", "data": [{"smiles": "CN(CCOc1ccc(CC2SC(=O)NC2=O)cc1)c1ccccn1", "note": "(centres unmarked) [Rosiglitazone, rosiglitazone, reference compound]", "values": [{"measurement": "Body weight and adipose tissue weight (result in words)", "setting": "C57BLKS/J db/db mice [1]", "value": "significantly increased"}, {"measurement": "Fed state plasma levels of glucose, triglycerides, and free fatty acids (result in words)", "setting": "C57BLKS/J db/db mice [2]", "value": "significantly reduced"}]}]}
